According to PubChem BioAssay AID493014 (National Center for Advancing Translational Sciences (NCATS), 2011):
The list shows a part of the results. The main result of the screen is listed elsewhere. These columns were measured beside it and carry no call. Compounds called inactive in the main read-out are mostly missing here. Words in brackets tell the shape of the fitted curve; partial curves, single points and poor fits give uncertain potencies.

Experiment: qHTS Assay to Find Inhibitors of Chronic Active B-Cell Receptor Signaling
Conditions: ABC-DLBCL IkBa-CBG/CBR reporter, luminescence ratio (green luciferase fused to IkBa over red control in TMD8 lymphoma cells), 4 h
How it was run: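 TMD8 ABC-DLBCL cells carrying doxycycline-inducible green luciferase fused to IkappaBalpha plus unfused red luciferase were exposed to compounds (up to 46 uM) for 4 hrs at 37C. Activity came from the overlap-corrected green/red luminescence ratio.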

[1] = measured here: CBR red luminescence, cell number
[2] = measured here: IkBa-CBG green luminescence

SMILES | AC50 [1] | AC50 [2]
CCOc1cc(/C=C2\N=C(SC)SC2=O)cc([N+](=O)[O-])c1OC(C)=O | 12.6 µM [falling, partial curve] | 
CC(C)c1nnc(NC(=O)C2CCCN2S(=O)(=O)c2ccc(Cl)cc2)s1 (stereo not given) | 14.1 µM [rising, partial curve, poor fit] | 
CC(O)CNc1nc2ccccc2n1-c1ncnc2sc3c(c12)CCC3 (stereo not given) | 35.5 µM [falling, single point] | 
CSc1ccccc1C(=O)Nc1cccc(C(C)=O)c1 | 29.1 µM [rising, single point] | 
C=CCCCCCCCCc1nc(SCC(=O)O)n[nH]1 | 35.5 µM [falling, partial curve, poor fit] | 
Cc1cccc(C(=O)Nc2nnc(-c3ccncc3)o2)c1 | 7.94 µM [falling, partial curve] | 
COc1ccc(Cl)cc1C(=O)NNC(=O)COC(=O)c1cccs1 | 14.6 µM [rising, partial curve, poor fit] | 
COc1cc(/C=C/C(=O)Nc2ccc(C(C)=O)cc2)cc(OC)c1OC | 2.91 µM [rising, single point] | 
Cc1ccc(C)c(SCC(=O)Nc2cc(C)nn2-c2ccc(F)cc2)c1 | 32.6 µM [falling, partial curve, poor fit] | 
O=C(COc1coc(CN2CCN(c3ccccc3)CC2)cc1=O)Nc1ccc(F)cc1 | 2.59 µM [falling, full curve] | 
CCOc1ccc(NC(=S)N2CCc3cc(OC)c(OC)cc3C2COc2ccc3c(C)cc(=O)oc3c2)cc1 (stereo not given) | 1.16 µM [rising, partial curve, poor fit] | 
CCc1ccc(C(=O)CSc2ncn[nH]2)cc1 | 14.1 µM [falling, partial curve, poor fit] | 
Cc1cc2nc(C3CCCN(C(=S)Nc4ccccc4C)C3)[nH]c2cc1C (stereo not given) | 2.82 µM [falling, partial curve, poor fit] | 
O=S(=O)(c1ccccc1)C(/C=N\O)/C=C/c1ccccc1 (stereo not given) | 35.5 µM [falling, single point] | 
Cc1ccc2nc(-c3ccc(O)cc3)c(Nc3ccc4c(c3)OCCO4)n2c1 | 12.6 µM [falling, partial curve] | 
Cc1cccc(C=Nc2ccccc2C(N)=O)c1 | 32.6 µM [rising, single point] | 
COc1ccc(N2CCN(C(=O)C3CCCO3)CC2)cc1 (stereo not given) | 18.4 µM [rising, partial curve] | 
O=C1c2ccccc2C(O)N1c1ccc(Cl)cc1 (stereo not given) | 20.6 µM [falling, partial curve] | 16.4 µM [rising, partial curve, poor fit]
CCOC(=O)c1c(NC(C)=O)sc2c1CCC(C=O)=C2Sc1ccccc1 | 29.1 µM [falling, single point] | 
CCCCOc1ccc(C(=O)CCN2CCOCC2)cc1 | 35.5 µM [falling, single point] | 15.8 µM [rising, single point]

Two compounds picked at random from the list so far:
SMILES | AC50 [1] | AC50 [2]
C=CCCCCCCCCc1nc(SCC(=O)O)n[nH]1 | 35.5 µM [falling, partial curve, poor fit] | 
COc1ccc(Cl)cc1C(=O)NNC(=O)COC(=O)c1cccs1 | 14.6 µM [rising, partial curve, poor fit] | 

(next part)

SMILES | AC50 [1] | AC50 [2]
CCCCN1c2cc(C)c(O)cc2C(C(=O)OCC)C1C (stereo not given) | 0.231 µM [rising, full curve, poor fit] | 
CCOc1ccc(-n2c(SCC(N)=O)nc3c([nH]c4ccccc43)c2=O)cc1 | 0.58 µM [falling, partial curve, poor fit] | 
C/C(=N\NC(=O)C1CCCC1)c1ccc(Cl)c(Cl)c1 | 1.12 µM [rising, full curve, poor fit] | 
COc1ccc(/C=N/OCC(=O)N=Nc2c(O)[nH]c3ccc(Br)cc23)cc1 | 4.47 µM [falling, single point] | 
COc1ccc(-c2cc(-c3ccc(OC)cc3)c(C#N)c(SC)n2)cc1 | 0.82 µM [falling, full curve, poor fit] | 
CCCn1c(C)cc(C(=O)COC(=O)c2cc(S(=O)(=O)NCC(C)C)c(Cl)cc2Cl)c1C | 2.31 µM [falling, full curve, poor fit] | 
C=CCOC(=O)C(C#N)c1nc2ccccc2nc1N1CCN(c2ccccc2OC)CC1 (stereo not given) | 6.31 µM [rising, single point] | 
C=C(C)COc1ccc(-c2n[nH]c(C)c2-c2ccc(Br)cc2)c(O)c1 | 35.5 µM [falling, single point] | 
N#Cc1c(N)oc(-c2ccco2)c1-c1ccco1 | 0.282 µM [falling, full curve, poor fit] | 
O=C(OCC(=O)C12CC3CC(CC(C3)C1)C2)c1ccc(O)cc1O | 18.4 µM [rising, single point] | 
O=S(=O)(c1c(F)cccc1F)C1CCN(S(=O)(=O)c2ccc3c(c2)OCCO3)CC1 | 0.259 µM [rising, partial curve, poor fit] | 
CSc1ncccc1C(=O)NCc1ccc(C)cc1 | 2.06 µM [rising, single point] | 
CCn1c(SCC(=O)Nc2nccs2)nnc1-c1ccc(S(=O)(=O)N2CCCCC2)cc1 | 20.6 µM [falling, partial curve, poor fit] | 
Cc1ccc(NC(=O)CNC(=O)c2cccc(C)c2)nc1 | 7.31 µM [falling, partial curve, poor fit] | 29.1 µM [rising, partial curve, poor fit]
Cc1ccccc1C(=O)N1CCC(C(=O)N2CCN(Cc3ccc4c(c3)OCO4)CC2)CC1 | 14.6 µM [rising, partial curve] | 18.4 µM [falling, partial curve]
O=C(COc1ccccc1F)Nc1ccc(-c2nc3ccccc3s2)cc1 | 0.13 µM [rising, full curve] | 
Cc1ccc(C)c(N2C(=O)N(Cc3cc(=O)n4ccccc4n3)c3ccccc3S2(=O)=O)c1 | 20 µM [falling, partial curve, poor fit] | 
O=C(NCCCO)c1cc2c([nH]c3ccccc32)c(-c2ccc(F)cc2)n1 | 22.4 µM [falling, single point] | 
CCC1=NN(C(=O)Cc2ccc([N+](=O)[O-])cc2)C(O)(C(F)(F)F)C1 (stereo not given) | 6.31 µM [falling, single point] | 
CCOc1ccccc1Nc1cc2n(c(=O)n1)CCc1cc(OC)c(OC)cc1-2 |  | 0.631 µM [falling, partial curve, poor fit]

SMILES | AC50 [1] | AC50 [2]
CCC1CCCCN1CCCNC(=O)c1cc2c(Cl)nc3ccccc3c2s1 (stereo not given) | 20 µM [falling, single point] | 
Cc1nc2ccc(NC(=O)c3cccs3)cc2s1 | 7.94 µM [falling, partial curve, poor fit] | 
COc1cc2c(O)c3c(c(-c4ccc5c(c4)OCO5)c2cc1OC)C(=O)OC3 | 6.31 µM [rising, partial curve] | 
CSc1nc(SCC(=O)NCc2ccco2)c2c3c(sc2n1)COC(C)(C)C3 | 31.6 µM [rising, partial curve, poor fit] | 35.5 µM [falling, partial curve, poor fit]
COc1cccc(C(=O)NC2CCN(CC(=O)Nc3c(C)cc(C)cc3C)CC2)c1 | 35.5 µM [rising, single point] | 
O=C1c2ccccc2CN1c1ccccc1 |  | 12.6 µM [rising, partial curve, poor fit]
Cc1cc2n(n1)C(c1ccccc1)Nc1ccccc1-2 (stereo not given) | 16.4 µM [rising, partial curve] | 
C#CCOCCOCCOCCNc1nc(N2CCN(C(=O)CCCCCCCCCCNC(=O)[C@H]([C@@H](C)CC)n3cc(CCCCCN)nn3)CC2)nc(N2CCN(C(=O)CCCCCCCCCCNC(=O)[C@@H]([C@H](C)CC)n3cc(CCCCCN)nn3)CC2)n1 | 6.51 µM [rising, single point] | 
CCOC(=O)N1CCN(CC(O)COC2CC(C)CC(C)(C)C2)CC1 (stereo not given) | 14.1 µM [falling, single point] | 
COc1ccc2c(c1OC)c(=O)n1c3ccc(OC(C)C(=O)NCCN4CCOCC4)cc3c3ccnc2c31 (stereo not given) | 3.98 µM [falling, full curve, poor fit] | 
O=C(COC(=O)c1nc(Cl)c(Cl)c(Cl)c1Cl)c1ccc[nH]1 |  | 29.1 µM [falling, single point]
Cc1ccc(-c2nc(-c3ccncc3)no2)c(Cl)c1 | 2.82 µM [rising, single point] | 
CCCCN(CC)CCCNC(=O)c1cc2c(=O)n(C)c3ccccc3c2n1C | 11.6 µM [falling, single point] | 
Cc1ccc(-n2ncc3c(=O)n(CC(=O)N4CCN(C(=O)c5ccco5)CC4)cnc32)cc1 | 29.1 µM [rising, single point] | 
CCCCCCCCCCOC(=O)Cn1c(COc2ccccc2OC)[n+](C)c2ccccc21 | 35.5 µM [falling, single point] | 
O=c1cc(N2CCc3ccccc3C2)[nH]c(=O)n1-c1ccccc1Cl | 18.4 µM [falling, single point] | 
CCCCCCC[C@@H](C/C=C/CCC(=O)N(C)C/C(=C/Cl)C/C(=C\C(=O)N1CC(OC)=CC1=O)OC)OC | 0.651 µM [rising, full curve, poor fit] | 
Cc1ccc(NC(=O)c2sccc2-n2cccc2)c(Cl)c1 | 14.1 µM [rising, partial curve] | 
O=C1OC(Nc2nc3ccccc3s2)c2ccccc21 (stereo not given) | 0.282 µM [rising, full curve, poor fit] | 
N#Cc1c(NC(=O)CSc2ncn[nH]2)sc2c1CCCCC2 | 16.4 µM [falling, partial curve, poor fit] | 
